Results deposited as PubChem BioAssay AID1259254 (NCATS, 2017)
Assay: 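Finding genes that stop cells copying their DNA twice in one cycle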 (primary screen). Cell system: human HCT116 colorectal cancer cells. Reagent: single siRNA against human genes. Timing: 3 days. Measurement: 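Nuclei stained with Hoechst and imaged; cell-cycle phase assigned by DNA content; G2 share scaled per plate, non-targeting siRNA 0%, GMNN siRNA 100%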. Reading the numbers: G2 robust z-score and G2 cells, % of GMNN control: higher = more G2 cells, more excess DNA replication; raw share of cells in G2: higher = larger share of cells with G2 DNA content. Rule for the call: 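Active siRNAs have a G2 robust z of 5 or more median absolute deviations over the median, which in these data means about 38% or higher of GMNN control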.
Shown is an unselected part of about 59,000 reagents. Of all reagents, about 1,550 (2.6%) are marked active. 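G2 share is only a proxy for re-replication; each gene was hit by three separate siRNAs, and active genes were retested.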 Raw values are not corrected between plates. The numbers tell different reagents against one gene apart. Not stated in the record: the amount of reagent.

| Gene | reagent no. | G2 robust z-score | G2 cells, % of GMNN control | raw share of cells in G2 (%) | Outcome |
| --- | --- | --- | --- | --- | --- |
| FOXO4 (forkhead box O4) | 1 | 0.686 | 7.8 | 8.56 | inactive |
| FOXO4 (forkhead box O4) | 2 | 1.48 | 13.4 | 10.5 | inactive |
| FOXO4 (forkhead box O4) | 3 | 0.228 | 4.57 | 4.7 | inactive |
| PRSS55 (serine protease 55) | 1 | 0.835 | 8.84 | 9.33 | inactive |
| PRSS55 (serine protease 55) | 2 | -0.414 | 0.055 | 4.49 | inactive |
| PRSS55 (serine protease 55) | 3 | 0.891 | 9.23 | 7.7 | inactive |
| SLC25A30 | 1 | 0.068 | 3.45 | 7.6 | inactive |
| SLC25A30 | 2 | -0.00209 | 2.95 | 5.78 | inactive |
| SLC25A30 | 3 | -0.0215 | 2.82 | 5.88 | inactive |
| COPS8 (COP9 signalosome subunit 8) | 1 | 5.84 | 44.1 | 24.9 | active |
| COPS8 (COP9 signalosome subunit 8) | 2 | -0.505 | -0.589 | 3.65 | inactive |
| COPS8 (COP9 signalosome subunit 8) | 3 | 0.0689 | 3.45 | 7.84 | inactive |
| ABR (ABR activator of RhoGEF and GTPase) | 1 | 1.16 | 11.1 | 8.5 | inactive |
| ABR (ABR activator of RhoGEF and GTPase) | 2 | -1.29 | -6.11 | 2.9 | inactive |
| ABR (ABR activator of RhoGEF and GTPase) | 3 | -0.122 | 2.11 | 4.78 | inactive |
| PATJ (PATJ crumbs cell polarity complex component) | 1 | 0.121 | 3.82 | 5.08 | inactive |
| PATJ (PATJ crumbs cell polarity complex component) | 2 | -0.972 | -3.87 | 4.95 | inactive |
| PATJ (PATJ crumbs cell polarity complex component) | 3 | -0.36 | 0.435 | 5.88 | inactive |
| LINGO1 (leucine rich repeat and Ig domain containing 1) | 1 | 0.0835 | 3.55 | 5.82 | inactive |
| LINGO1 (leucine rich repeat and Ig domain containing 1) | 2 | -1.07 | -4.54 | 3.56 | inactive |
| LINGO1 (leucine rich repeat and Ig domain containing 1) | 3 | -0.736 | -2.21 | 4.02 | inactive |
| PRSS56 (serine protease 56) | 1 | 1.23 | 11.6 | 7.52 | inactive |
| PRSS56 (serine protease 56) | 2 | 0.136 | 3.92 | 4.29 | inactive |
| PRSS56 (serine protease 56) | 3 | 3.44 | 27.2 | 14 | inactive |
| SLC48A1 | 1 | 1.28 | 12 | 9.13 | inactive |
| SLC48A1 | 2 | 0.449 | 6.13 | 6.68 | inactive |
| SLC48A1 | 3 | 5.83 | 44 | 17.2 | active |
| ZC3H11D (zinc finger CCCH-type containing 11D) | 1 | -0.186 | 1.66 | 4.2 | inactive |
| ZC3H11D (zinc finger CCCH-type containing 11D) | 2 | -0.279 | 1 | 3.29 | inactive |
| ZC3H11D (zinc finger CCCH-type containing 11D) | 3 | -0.215 | 1.45 | 3.22 | inactive |
| OR6S1 (olfactory receptor family 6 subfamily S member 1) | 1 | -0.516 | -0.665 | 3.92 | inactive |
| OR6S1 (olfactory receptor family 6 subfamily S member 1) | 2 | -1.06 | -4.5 | 2.44 | inactive |
| OR6S1 (olfactory receptor family 6 subfamily S member 1) | 3 | -0.367 | 0.383 | 3.43 | inactive |
| CMKLR1 (chemerin chemokine-like receptor 1) | 1 | 0.0308 | 3.18 | 6.98 | inactive |
| CMKLR1 (chemerin chemokine-like receptor 1) | 2 | -0.155 | 1.88 | 5.17 | inactive |
| CMKLR1 (chemerin chemokine-like receptor 1) | 3 | 6.2 | 46.6 | 17.6 | active |
| DTYMK (deoxythymidylate kinase) | 1 | -1.18 | -5.36 | 3.84 | inactive |
| DTYMK (deoxythymidylate kinase) | 2 | 0.191 | 4.31 | 6.86 | inactive |
| DTYMK (deoxythymidylate kinase) | 3 | -1.03 | -4.29 | 2.51 | inactive |
| OGT (O-linked N-acetylglucosamine (GlcNAc) transferase) | 1 | -0.522 | -0.708 | 4.45 | inactive |
| OGT (O-linked N-acetylglucosamine (GlcNAc) transferase) | 2 | -1.48 | -7.42 | 2.66 | inactive |
| OGT (O-linked N-acetylglucosamine (GlcNAc) transferase) | 3 | -0.266 | 1.1 | 5.04 | inactive |
| EPHX2 (epoxide hydrolase 2) | 1 | 6.95 | 51.8 | 25 | active |
| EPHX2 (epoxide hydrolase 2) | 2 | -0.884 | -3.25 | 2.5 | inactive |
| EPHX2 (epoxide hydrolase 2) | 3 | -0.57 | -1.04 | 4.86 | inactive |
| FABP9 (fatty acid binding protein 9) | 1 | -1.33 | -6.37 | 3.15 | inactive |
| FABP9 (fatty acid binding protein 9) | 2 | -0.795 | -2.63 | 3.93 | inactive |
| FABP9 (fatty acid binding protein 9) | 3 | 0.133 | 3.9 | 5.71 | inactive |

A run of entries of the results above:
| Gene | reagent no. | G2 robust z-score | G2 cells, % of GMNN control | raw share of cells in G2 (%) | Outcome |
| --- | --- | --- | --- | --- | --- |
| FOXO4 (forkhead box O4) | 3 | 0.228 | 4.57 | 4.7 | inactive |
| PRSS55 (serine protease 55) | 1 | 0.835 | 8.84 | 9.33 | inactive |
| PRSS55 (serine protease 55) | 2 | -0.414 | 0.055 | 4.49 | inactive |
| PRSS55 (serine protease 55) | 3 | 0.891 | 9.23 | 7.7 | inactive |
| SLC25A30 | 1 | 0.068 | 3.45 | 7.6 | inactive |
